Measured values published in patent US11268150B2, “Compositions and methods for Xi chromosome reactivation” (University of Massachusetts, priority 2015, dated 2022).
At least one compound was matched to its structure with a doubt left. Some compounds share one wording; it may come from a single statement.

Experiments:
[1] = system: differentiated female mouse ES cells; assay: Two-color RNA FISH of Xist and Mecp2 in differentiated mouse ES cells treated with chemical inhibitors; format: cell-based; conditions: OSU-03012 2.5 or 4 μM, LY294002 4 or 10 μM, 3 days
Description: H4SV cells, BMSL2 (HOBMSL2) cells and human RTT fibroblasts were cultured as recommended by the supplier. PGK12.1 cells were cultured as previously described and differentiated by replating, on gelatinized plastic dishes, in the presence of 100 nM alpha-retinoic acid (Sigma) and absence of leukemia inhibitory factor for at least one week.
RNA FISH experiments were performed (see Table 2 for cDNA template sources for probes). Cells were visualized on a Leica DM IRE2 confocal microscope. For quantification, 100-500 cells total from at least 10 different fields were counted and scored; only cells with a detectable RNA FISH signal were included in the analysis, with the exception of the experiment in FIG. 3A. Images were adjusted consistently for contrast and brightness using AxioVision Software (Zeiss). All RNA-FISH experiments were performed at least twice, and representative images and quantification are shown from one experiment.
For XCI reversibility experiments, BMSL2 cells were treated with 8 μM LY294002 or 2.5 μM OSU-03012 for 3 days, washed twice with PBS, and then the media was replaced with fresh media every day for at least 5 days prior to RNA FISH analysis.

[2] = system: BMSL2 cells; assay: Two-color RNA FISH of Xist and Mecp2 in BMSL2 fibroblasts; format: cell-based, mouse; conditions: for biallelic expression of Mecp2 (RNA FISH): two Mecp2 signals indicate biallelic expression
[3] = system: Cells containing Xi-linked Hprt; assay: Hypoxanthine-aminopterin-thymidine (HAT) selection assay; format: cell-based, mouse; conditions: versus DMSO negative control
Text: The HAT assay is a dual selection assay that requires activation of the Xi-linked Hprt gene by an inhibitor with sufficiently low cytotoxicity to allow cellular proliferation and survival.
The mouse shRNA^mir library (release 2.16; Open Biosystems/Thermo Scientific) was obtained. H4SV cells (1.1×10^6) were transduced at a multiplicity of infection of 0.2 with the retroviral pools, generated as previously described, and selected for resistance to puromycin for 7 days. Cells were FACS sorted and GFP-positive cells were selected. Candidate shRNAs were identified as described previously. To validate the candidates, 3×10^5 H4SV or BMSL2 cells were transduced with single shRNAs and puromycin selected for 4 days. For HAT selection, 3×10^5 cells were plated in 6-well plates and selected in medium containing 1× HAT (GIBCO) for 1 week, followed by live cell imaging using a Zeiss Axiovert 200 microscope.

[4] = system: Mouse fibroblasts; assay: Relative expression of Xist and Mecp2 in mouse fibroblasts treated with inhibitors of PDPK1 downstream substrates; format: cell-based

Structure (SMILES)	Xist cloud (RNA FISH) [1]	biallelic expression of Mecp2 (RNA FISH) [1]	normal Xist expression and localization, and monoallelic expression of Mecp2, following removal of the drug ([2]; 8 μM LY294002 or 2.5 μM OSU-03012 for 3 days, then drug removed for at least six days)	biallelic expression of Mecp2 (RNA FISH) [2]	cellular growth in HAT selection (reactivation of Xi-linked Hprt) [3]	relative expression of Mecp2 [4]	relative expression of Xist [4]
O=c1cc(N2CCOCC2)oc2c(-c3ccccc3)cccc12 [LY294002]	dose-dependent loss of the Xist cloud	increased biallelic expression of Mecp2	largely restored	biallelic expression			
c1cc(-c2cnn3cc(-c4ccc(OCCN5CCCCC5)cc4)cnc23)ccn1 [dorsomorphin]				biallelic expression	confirmed	increase	decrease
CO[C@H]1C[C@@H]2CC[C@@H](C)[C@@](O)(O2)C(=O)C(=O)N2CCCC[C@H]2C(=O)O[C@H]([C@H](C)C[C@@H]2CC[C@@H](O)[C@H](OC)C2)CC(=O)[C@H](C)/C=C(\C)[C@@H](O)[C@@H](OC)C(=O)[C@H](C)C[C@H](C)/C=C/C=C/C=C/1C [rapamycin]				biallelic expression			
